Laboratory results as given in patent publication US8802411B2, “ADP detection based luminescent phosphotransferase or ATP hydrolase assay” (Promega Corporation, priority 2008, dated 2014).
At least one structure is not confirmed: it was looked up by name or label, or the drawing left a doubt.

Legend:
adenylate cyclase (AC) = assay: Adenylate cyclase assay and inhibition; type: biochemical; conditions: calmodulin antagonists, when converting ADP to ATP; FIG. 5
Protocol: Activity of various adenylyl cyclases (ACs) was measured at 30° C. for 30 minutes in the presence of 60 mM Tris pH 7.5, 10 mM MgCl2, 40 nM calmodulin and variable ATP concentrations. Except for those experiments related to AC titration, 100 ng of the AC was used. When used, the calmodulin antagonists were prepared according to the manufacturer's recommendation and were added directly to the AC reaction when direct inhibition was assessed or to the reaction converting ADP to ATP to assess AC inhibition during ATP formation.

PI3 lipid kinase = PI3 lipid kinase reaction with luminescent ADP detection; type: biochemical; conditions: FIG. 17

Row | Compound | use as inhibitors of adenylate cyclase (adenylate cyclase (AC)) | inhibition of PI3 lipid kinase (PI3 lipid kinase)
1 | COc1cc2c3cc1Oc1c(OC)c(OC)cc4c1[C@@H](Cc1ccc(O)c(c1)Oc1ccc(cc1)C[C@@H]3N(C)CC2)N(C)CC4 [B6 barbamine] | may be used as inhibitors of adenylate cyclase | –
2 | COC[C@H]1OC(=O)c2coc3c2[C@@]1(C)C1=C(C3=O)[C@@H]2CCC(=O)[C@@]2(C)C[C@H]1OC(C)=O [wortmanin, wortmannin] | – | inhibition
